From PubChem BioAssay AID743255 (National Center for Advancing Translational Sciences (NCATS), 2014)
Several values for one entry are separate records, joined by “and”; a condition that tells them apart may be missing. Identical values can stand only once. About 910 (0.23%) of roughly 390,000 compounds were called active. This list was built around the results that the source calls inconclusive (neither active nor inactive); the mix of calls is not that of the screen. The call rests on the fitted dose curve; in most records, active means well fitted inhibition curve with a large enough effect; inconclusive means small, poorly fitted or top-dose-only effect; inactive means no such curve, though single readings can be large or run the other way. Potencies of inconclusive entries are doubtful fits and often do not repeat.

The chains behind the UniProt entries cited, without tags or fusion partners. Where a name states a change or a piece, a line headed by the entry shows the natural chain unless it says otherwise.
UniProt O94782: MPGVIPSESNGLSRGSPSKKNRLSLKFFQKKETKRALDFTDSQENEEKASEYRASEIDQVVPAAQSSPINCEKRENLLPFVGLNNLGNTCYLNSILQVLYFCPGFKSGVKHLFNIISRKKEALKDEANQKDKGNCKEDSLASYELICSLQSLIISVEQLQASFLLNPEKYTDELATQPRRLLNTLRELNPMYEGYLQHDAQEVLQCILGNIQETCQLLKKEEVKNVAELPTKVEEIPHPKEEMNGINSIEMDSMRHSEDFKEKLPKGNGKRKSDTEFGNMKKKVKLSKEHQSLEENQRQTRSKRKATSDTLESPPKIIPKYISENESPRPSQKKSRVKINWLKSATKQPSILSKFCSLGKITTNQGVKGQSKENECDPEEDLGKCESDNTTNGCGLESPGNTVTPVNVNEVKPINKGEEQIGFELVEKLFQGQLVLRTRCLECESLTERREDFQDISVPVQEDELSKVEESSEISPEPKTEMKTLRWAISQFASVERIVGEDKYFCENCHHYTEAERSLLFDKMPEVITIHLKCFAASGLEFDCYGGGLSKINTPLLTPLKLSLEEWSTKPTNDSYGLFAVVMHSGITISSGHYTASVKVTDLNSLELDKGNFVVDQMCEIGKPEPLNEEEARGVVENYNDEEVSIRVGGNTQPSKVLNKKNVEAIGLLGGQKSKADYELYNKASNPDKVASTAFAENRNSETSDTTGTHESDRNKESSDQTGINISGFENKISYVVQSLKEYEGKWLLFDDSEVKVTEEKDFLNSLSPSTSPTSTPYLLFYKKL

Each compound was assayed against Ubiquitin carboxyl-terminal hydrolase 1 (Homo sapiens) (UniProt O94782) (assay: Inhibitors of USP1/UAF1: Primary Screen). Conditions: recombinant USP1/UAF1, Ub-Rhodamine cleavage fluorescence; activity change, negative = inhibition: at 57.1 µM (top of the series).
Outline: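 In this screen, compounds sit with the deubiquitinase complex (1nM) for 15 min at room temperature before Ub-Rho is added at 150nM final. Fluorescence rise is then followed for 6 reads every 60 seconds.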
Further: nearly all actives have a fitted effect of over 60% in size.
On the % scale 0 is the no-effect control and ±100 the full control effect; potency means the concentration at half of the fitted maximal effect.

Structure (SMILES) | Potency | activity change, negative = inhibition
COc1ccc(Cc2nccc3cc(OC)c(OC)cc23)cc1OC | inconclusive: 4.47 µM [inhibitor, full curve] | 
O=C(N/N=C/c1c(O)n(CCC2=CCCCC2)c(=S)[nH]c1=O)c1ccccc1 |  | inactive: -9.52%
COc1cccc(CNC(=O)CCC(=O)N2C[C@H]3C[C@H](C2)c2cccc(=O)n2C3)c1OC |  | inconclusive: -27.9% [inhibitor]
CN1/C(=C\C=C2C(=O)NC(=S)NC2=O)C(C)(C)c2ccccc21 | inconclusive: 4.47 µM [inhibitor, partial curve, poor fit] | 
Cc1ccc(Cn2cccc(C(=O)Nc3ccc4c(c3)OCCO4)c2=O)cc1 |  | inactive: -16.1%
COCCCNC(=O)c1c(NC(=O)c2ccco2)n(Cc2ccccc2)c2nc3ccccc3nc12 | inconclusive: 28.2 µM [inhibitor, single point] | 
CCCCn1c(N)c(C(=O)NCc2cccs2)c2nc3ccccc3nc21 | inconclusive: 35.5 µM [inhibitor, partial curve, poor fit] | 
O=P(Oc1ccccc1)(Oc1ccccc1)C(O)c1ccc(Cl)cc1 (configuration not stated) | inconclusive: 0.316 µM [inhibitor, full curve] | 
COc1ccc2nc(NC(=O)c3nc(S(=O)(=O)Cc4cccc(C)c4)ncc3Cl)sc2c1 | inconclusive: 0.708 µM [inhibitor, full curve, poor fit] | 
Oc1c(Cl)c(Cl)c(Cl)c(Cl)c1Cl |  | inactive: -20.2%
CCN1CCN(P2(=O)C=C(c3ccccc3)OC(c3ccccc3)=C2)CC1 | inconclusive: 3.55 µM [inhibitor, partial curve] | 
COc1cccc(-c2sc3ccccc3c2-c2ccc(OCCN3CCOCC3)cc2)c1 | inconclusive: 2.24 µM [inhibitor, full curve] | 
CCOc1ccc(N(C(C)C(=O)Nc2cc(Cl)ccc2OC)S(C)(=O)=O)cc1 (configuration not stated) | inconclusive: 39.8 µM [inhibitor, single point] | 
Cc1ccc2nc(NC(=O)c3cccn(Cc4ccccc4F)c3=O)sc2c1 | inconclusive: 0.398 µM [inhibitor, full curve] | 
O=C(c1ccccc1)N1CCN(c2ccccc2)CC1 | inconclusive: 50.1 µM [inhibitor, partial curve, poor fit] | 
CC(=O)c1cn(Cc2ccc(F)cc2)c2ccccc12 | inconclusive: 3.98 µM [inhibitor, full curve, poor fit] | 
CCCC[C@@H](C)C[C@@H](C)C(=O)N(C)[C@@H](CC(C)C)C(=O)N[C@H](C(=O)N(C)[C@H](C(=O)N1C[C@@H](O)C[C@H]1C(=O)N1C(=O)C=C[C@@H]1C)C(C)C)C(C)OC(C)=O (some centres not stated) | inconclusive: 44.7 µM [inhibitor, partial curve, poor fit] | 
C=C(C)C(Cc1c(OC)ccc(C(=O)/C=C/c2ccc(O)cc2)c1O)OO (configuration not stated) | inconclusive: 7.94 µM [inhibitor, partial curve] | 
Cc1ccccc1-c1nc(CN2C(=O)CN=C(c3ccccc3)c3ccccc32)c(C)o1 | inconclusive: 5.01 µM [inhibitor, full curve, poor fit] | 
O=C1NC(=O)C(=Cc2ccccc2OCCOc2ccc([N+](=O)[O-])cc2)C(=O)N1 |  | inactive: -32.7%
COc1ccc(/C=C2/C(=O)N(Cc3ccco3)C(=O)N(C(C)C)C2=O)cc1 | inconclusive: 35.5 µM [inhibitor, partial curve] | 

Structure (SMILES) | Potency | activity change, negative = inhibition
CN1CC[C@@]23CCCC[C@@H]2[C@@H]1Cc1ccc(O)cc13 |  | inactive: -14.4%
N#Cc1c(/N=C/c2ccc(O)cc2O)sc2c1C1CCN2CC1 | inconclusive: 35.5 µM [inhibitor, partial curve] | 
CCCCn1c(NC(=O)c2ccc(Br)o2)c(C(=O)OCC)c2nc3ccccc3nc21 | active: 25.1 µM | 
N#CC1=C(N)Oc2c(c(=O)sc3ccccc23)C1c1ccncc1 (configuration not stated) |  | inactive: -16.5%
CN(C)C(=O)Oc1ccc(-c2nnco2)cc1 | inconclusive: 17.8 µM [inhibitor, partial curve, poor fit] | 
O=C(CN1CCCCC1)c1ccc(OC(F)F)cc1 |  | inactive: 1.68%
C=CCN1C(=O)/C(=C/c2ccc(N3CCOCC3)o2)C(=O)NC1=S | inconclusive: 44.7 µM [inhibitor, partial curve, poor fit] | 
CC[C@]1(C(=O)OC)[C@H]2C(=O)N(Cc3ccccc3)C(=O)[C@H]2[C@H]2CN=C(SCc3ccc(C(=O)OC)cc3)N21 | inconclusive: 0.1 µM [inhibitor, full curve, poor fit] | 
COC(=O)C1=C(c2ccc(Cl)c(C(F)(F)F)c2)C[C@@H]2CC[C@H]1N2C(=O)NCCOc1ccccc1 |  | inactive: -26.4%
COC(=O)C1=C(c2ccc(F)cc2F)C[C@@H]2CC[C@H]1N2C(=O)N1CCC(O)(c2ccc(Cl)cc2)CC1 |  | inactive: -29.3%
Cc1oc(-c2ccccc2Cl)nc1CN1C(=O)CN=C(c2ccccc2)c2ccccc21 | inconclusive: 2.24 µM [inhibitor, full curve] | 
COc1cccc(N=Nc2c(O)[nH]c(=S)[nH]c2=O)c1 |  | inactive: -14.3%
COc1ccc(CNC(=O)CSCc2cnn(-c3ccccc3)c2-n2cccc2)cc1OC | inconclusive: 8.91 µM [inhibitor, partial curve, poor fit] | 
CN1CCC(N(C)c2nc(-c3ccccc3)nc3ccccc23)CC1 | inconclusive: 31.6 µM [inhibitor, single point] | 
Cc1ccc(-n2c(C)cc(/C=C3/C(=O)NC(=O)N(Cc4ccco4)C3=O)c2C)cc1 | inconclusive: 35.5 µM [inhibitor, single point] | 
O=C1NC(=O)N(Cc2ccc(F)cc2)C(=O)/C1=C/c1cccs1 |  | inactive: -5.58%
CCN1C[C@]2(COC)CC[C@H](O)[C@]34C1[C@](O)([C@@H](OC)[C@H]23)[C@@]1(O)C[C@H](OC)[C@H]2C[C@@H]4[C@@H]1[C@H]2OC | inconclusive: 35.5 µM [inhibitor, single point] | 
CCOc1ccc2nc(N=Nc3c(O)[nH]c(=S)[nH]c3=O)sc2c1 | inconclusive: 39.8 µM [inhibitor, partial curve] | 
COC(=O)C1=C(c2ccc(OC(F)(F)F)cc2)C[C@@H]2CC[C@H]1N2C(=O)NC(C)C | inconclusive: 2.24 µM [inhibitor, full curve, poor fit] | 
COc1ccc(CNC(=O)c2cnn3c(C)c(Cc4ccc(F)cc4)c(C)nc23)cc1 | inconclusive: 6.31 µM [inhibitor, single point] | 
COP(=O)(OC)C(NS(=O)(=O)c1ccccc1)C(Cl)(Cl)Cl (configuration not stated) | inconclusive: 0.794 µM [inhibitor, full curve, poor fit] | 

Structure (SMILES) | Potency | activity change, negative = inhibition
N#CC(C#N)=Cc1ccc(C=C(C#N)C#N)cc1 |  | inconclusive: -30.5% [inhibitor]
COc1cc2c3cc1Oc1c(OC)c(OC)cc4c1[C@H](Cc1ccc(cc1)Oc1cc(ccc1O)C[C@H]3N(C)CC2)N(C)CC4 | inconclusive: 79.4 µM [inhibitor, partial curve, poor fit] | 
CCOc1ccc(C(=O)OC2CC3CCC(C2)N3C)cc1 (configuration not stated) |  | inactive: -18.7%
CN1C(=O)/C(=C/c2ccc(N3CCCCCC3)o2)C(=O)NC1=S | inconclusive: 5.01 µM [inhibitor, full curve] | 
Cc1[nH]c2ccccc2c1CCNCc1cccnc1 |  | inactive: -25.6%
C[C@]12C=CC(=O)C=C1CC[C@@H]1C2=CC[C@]2(C)[C@@H](C(=O)CN3CCN(c4cc(N5CCCC5)nc(N5CCCC5)n4)CC3)CC[C@@H]12 | inconclusive: 35.5 µM [inhibitor, partial curve, poor fit] | 
COc1cc2c(c(OC)c1OC)-c1ccc(O)c(=O)cc1[C@@H](NC(C)=O)CC2 | inconclusive: 79.4 µM [inhibitor, partial curve, poor fit] | 
CCOc1ccc(N2C(=O)NC(=O)/C(=C/c3cnc(SC)nc3)C2=O)cc1 |  | inactive: -18.2%
Cn1nc(-c2ccc(OCC(=O)N3CCN(Cc4ccccc4)CC3)cc2)c2ccccc2c1=O | inactive and inconclusive: 39.8 µM [inhibitor, partial curve] | 
O=C(O)COc1ccc(/C=C2/SC(=S)N(Cc3ccccc3)C2=O)cc1 | inconclusive: 79.4 µM [inhibitor, partial curve, poor fit] | 
O=C(Nc1ccc(Cl)c(Cl)c1)c1ccco1 |  | inactive: -19.6%
CCN1C(=O)C(=Cc2cc(C)n(C3CC3)c2C)C(=O)N(CC)C1=S |  | inactive: -21.5%
C[C@H]1CN([C@@H](C)CO)C(=O)c2cc(-c3cccnc3)cnc2O[C@H]1CN(C)Cc1ccc(Oc2ccccc2)cc1 | inconclusive: 0.251 µM [inhibitor, full curve, poor fit] | 
Brc1ccc(Oc2ccc(Br)cc2Br)c(Br)c1 |  | inactive: -24%
CN(C)C(=S)SSC(=S)N(C)C | inconclusive: 44.7 µM [inhibitor, partial curve, poor fit] | 
CCc1ccc(N2C(=O)NC(=O)/C(=C\c3cccn3CCOc3ccc(C(C)C)cc3)C2=O)cc1 |  | inactive: -13.6%
O=c1[nH]c(=O)n(Cc2ccccc2)c(O)c1/C=C1\C=Nc2ccccc21 | inconclusive: 35.5 µM [inhibitor, partial curve, poor fit] | 
COc1ccc(CCNC2CCCCC2)cc1OC | inconclusive: 28.2 µM [inhibitor, partial curve] | 
C=Cc1ccc(Cn2c(C(=O)O)c(C=O)c3ccccc32)cc1 | inconclusive: 35.5 µM [inhibitor, single point] | 
COc1cc(Br)c(CNCCc2ccc3c(c2)OCO3)cc1OC | inconclusive: 5.62 µM [inhibitor, partial curve] | 
